Test in all cases: co-IP
For assay [1], the target named is Myc-BIRC6 (mouse) (mouse) (UniProt O88738).
In assay [2] the target is BIRC6, endogenous in HEK293T cells (human (endogenous in HEK293T)) (UniProt Q9NR09).
Assay [3] deals with XIAP, endogenous in HEK293T cells (human (endogenous in HEK293T)) (UniProt P98170).

By UniProt entry, the sequences of proteins in these tests, tags left out. Where a name states a change or a piece, a line headed by the entry shows the natural chain unless it says otherwise.
UniProt O88738: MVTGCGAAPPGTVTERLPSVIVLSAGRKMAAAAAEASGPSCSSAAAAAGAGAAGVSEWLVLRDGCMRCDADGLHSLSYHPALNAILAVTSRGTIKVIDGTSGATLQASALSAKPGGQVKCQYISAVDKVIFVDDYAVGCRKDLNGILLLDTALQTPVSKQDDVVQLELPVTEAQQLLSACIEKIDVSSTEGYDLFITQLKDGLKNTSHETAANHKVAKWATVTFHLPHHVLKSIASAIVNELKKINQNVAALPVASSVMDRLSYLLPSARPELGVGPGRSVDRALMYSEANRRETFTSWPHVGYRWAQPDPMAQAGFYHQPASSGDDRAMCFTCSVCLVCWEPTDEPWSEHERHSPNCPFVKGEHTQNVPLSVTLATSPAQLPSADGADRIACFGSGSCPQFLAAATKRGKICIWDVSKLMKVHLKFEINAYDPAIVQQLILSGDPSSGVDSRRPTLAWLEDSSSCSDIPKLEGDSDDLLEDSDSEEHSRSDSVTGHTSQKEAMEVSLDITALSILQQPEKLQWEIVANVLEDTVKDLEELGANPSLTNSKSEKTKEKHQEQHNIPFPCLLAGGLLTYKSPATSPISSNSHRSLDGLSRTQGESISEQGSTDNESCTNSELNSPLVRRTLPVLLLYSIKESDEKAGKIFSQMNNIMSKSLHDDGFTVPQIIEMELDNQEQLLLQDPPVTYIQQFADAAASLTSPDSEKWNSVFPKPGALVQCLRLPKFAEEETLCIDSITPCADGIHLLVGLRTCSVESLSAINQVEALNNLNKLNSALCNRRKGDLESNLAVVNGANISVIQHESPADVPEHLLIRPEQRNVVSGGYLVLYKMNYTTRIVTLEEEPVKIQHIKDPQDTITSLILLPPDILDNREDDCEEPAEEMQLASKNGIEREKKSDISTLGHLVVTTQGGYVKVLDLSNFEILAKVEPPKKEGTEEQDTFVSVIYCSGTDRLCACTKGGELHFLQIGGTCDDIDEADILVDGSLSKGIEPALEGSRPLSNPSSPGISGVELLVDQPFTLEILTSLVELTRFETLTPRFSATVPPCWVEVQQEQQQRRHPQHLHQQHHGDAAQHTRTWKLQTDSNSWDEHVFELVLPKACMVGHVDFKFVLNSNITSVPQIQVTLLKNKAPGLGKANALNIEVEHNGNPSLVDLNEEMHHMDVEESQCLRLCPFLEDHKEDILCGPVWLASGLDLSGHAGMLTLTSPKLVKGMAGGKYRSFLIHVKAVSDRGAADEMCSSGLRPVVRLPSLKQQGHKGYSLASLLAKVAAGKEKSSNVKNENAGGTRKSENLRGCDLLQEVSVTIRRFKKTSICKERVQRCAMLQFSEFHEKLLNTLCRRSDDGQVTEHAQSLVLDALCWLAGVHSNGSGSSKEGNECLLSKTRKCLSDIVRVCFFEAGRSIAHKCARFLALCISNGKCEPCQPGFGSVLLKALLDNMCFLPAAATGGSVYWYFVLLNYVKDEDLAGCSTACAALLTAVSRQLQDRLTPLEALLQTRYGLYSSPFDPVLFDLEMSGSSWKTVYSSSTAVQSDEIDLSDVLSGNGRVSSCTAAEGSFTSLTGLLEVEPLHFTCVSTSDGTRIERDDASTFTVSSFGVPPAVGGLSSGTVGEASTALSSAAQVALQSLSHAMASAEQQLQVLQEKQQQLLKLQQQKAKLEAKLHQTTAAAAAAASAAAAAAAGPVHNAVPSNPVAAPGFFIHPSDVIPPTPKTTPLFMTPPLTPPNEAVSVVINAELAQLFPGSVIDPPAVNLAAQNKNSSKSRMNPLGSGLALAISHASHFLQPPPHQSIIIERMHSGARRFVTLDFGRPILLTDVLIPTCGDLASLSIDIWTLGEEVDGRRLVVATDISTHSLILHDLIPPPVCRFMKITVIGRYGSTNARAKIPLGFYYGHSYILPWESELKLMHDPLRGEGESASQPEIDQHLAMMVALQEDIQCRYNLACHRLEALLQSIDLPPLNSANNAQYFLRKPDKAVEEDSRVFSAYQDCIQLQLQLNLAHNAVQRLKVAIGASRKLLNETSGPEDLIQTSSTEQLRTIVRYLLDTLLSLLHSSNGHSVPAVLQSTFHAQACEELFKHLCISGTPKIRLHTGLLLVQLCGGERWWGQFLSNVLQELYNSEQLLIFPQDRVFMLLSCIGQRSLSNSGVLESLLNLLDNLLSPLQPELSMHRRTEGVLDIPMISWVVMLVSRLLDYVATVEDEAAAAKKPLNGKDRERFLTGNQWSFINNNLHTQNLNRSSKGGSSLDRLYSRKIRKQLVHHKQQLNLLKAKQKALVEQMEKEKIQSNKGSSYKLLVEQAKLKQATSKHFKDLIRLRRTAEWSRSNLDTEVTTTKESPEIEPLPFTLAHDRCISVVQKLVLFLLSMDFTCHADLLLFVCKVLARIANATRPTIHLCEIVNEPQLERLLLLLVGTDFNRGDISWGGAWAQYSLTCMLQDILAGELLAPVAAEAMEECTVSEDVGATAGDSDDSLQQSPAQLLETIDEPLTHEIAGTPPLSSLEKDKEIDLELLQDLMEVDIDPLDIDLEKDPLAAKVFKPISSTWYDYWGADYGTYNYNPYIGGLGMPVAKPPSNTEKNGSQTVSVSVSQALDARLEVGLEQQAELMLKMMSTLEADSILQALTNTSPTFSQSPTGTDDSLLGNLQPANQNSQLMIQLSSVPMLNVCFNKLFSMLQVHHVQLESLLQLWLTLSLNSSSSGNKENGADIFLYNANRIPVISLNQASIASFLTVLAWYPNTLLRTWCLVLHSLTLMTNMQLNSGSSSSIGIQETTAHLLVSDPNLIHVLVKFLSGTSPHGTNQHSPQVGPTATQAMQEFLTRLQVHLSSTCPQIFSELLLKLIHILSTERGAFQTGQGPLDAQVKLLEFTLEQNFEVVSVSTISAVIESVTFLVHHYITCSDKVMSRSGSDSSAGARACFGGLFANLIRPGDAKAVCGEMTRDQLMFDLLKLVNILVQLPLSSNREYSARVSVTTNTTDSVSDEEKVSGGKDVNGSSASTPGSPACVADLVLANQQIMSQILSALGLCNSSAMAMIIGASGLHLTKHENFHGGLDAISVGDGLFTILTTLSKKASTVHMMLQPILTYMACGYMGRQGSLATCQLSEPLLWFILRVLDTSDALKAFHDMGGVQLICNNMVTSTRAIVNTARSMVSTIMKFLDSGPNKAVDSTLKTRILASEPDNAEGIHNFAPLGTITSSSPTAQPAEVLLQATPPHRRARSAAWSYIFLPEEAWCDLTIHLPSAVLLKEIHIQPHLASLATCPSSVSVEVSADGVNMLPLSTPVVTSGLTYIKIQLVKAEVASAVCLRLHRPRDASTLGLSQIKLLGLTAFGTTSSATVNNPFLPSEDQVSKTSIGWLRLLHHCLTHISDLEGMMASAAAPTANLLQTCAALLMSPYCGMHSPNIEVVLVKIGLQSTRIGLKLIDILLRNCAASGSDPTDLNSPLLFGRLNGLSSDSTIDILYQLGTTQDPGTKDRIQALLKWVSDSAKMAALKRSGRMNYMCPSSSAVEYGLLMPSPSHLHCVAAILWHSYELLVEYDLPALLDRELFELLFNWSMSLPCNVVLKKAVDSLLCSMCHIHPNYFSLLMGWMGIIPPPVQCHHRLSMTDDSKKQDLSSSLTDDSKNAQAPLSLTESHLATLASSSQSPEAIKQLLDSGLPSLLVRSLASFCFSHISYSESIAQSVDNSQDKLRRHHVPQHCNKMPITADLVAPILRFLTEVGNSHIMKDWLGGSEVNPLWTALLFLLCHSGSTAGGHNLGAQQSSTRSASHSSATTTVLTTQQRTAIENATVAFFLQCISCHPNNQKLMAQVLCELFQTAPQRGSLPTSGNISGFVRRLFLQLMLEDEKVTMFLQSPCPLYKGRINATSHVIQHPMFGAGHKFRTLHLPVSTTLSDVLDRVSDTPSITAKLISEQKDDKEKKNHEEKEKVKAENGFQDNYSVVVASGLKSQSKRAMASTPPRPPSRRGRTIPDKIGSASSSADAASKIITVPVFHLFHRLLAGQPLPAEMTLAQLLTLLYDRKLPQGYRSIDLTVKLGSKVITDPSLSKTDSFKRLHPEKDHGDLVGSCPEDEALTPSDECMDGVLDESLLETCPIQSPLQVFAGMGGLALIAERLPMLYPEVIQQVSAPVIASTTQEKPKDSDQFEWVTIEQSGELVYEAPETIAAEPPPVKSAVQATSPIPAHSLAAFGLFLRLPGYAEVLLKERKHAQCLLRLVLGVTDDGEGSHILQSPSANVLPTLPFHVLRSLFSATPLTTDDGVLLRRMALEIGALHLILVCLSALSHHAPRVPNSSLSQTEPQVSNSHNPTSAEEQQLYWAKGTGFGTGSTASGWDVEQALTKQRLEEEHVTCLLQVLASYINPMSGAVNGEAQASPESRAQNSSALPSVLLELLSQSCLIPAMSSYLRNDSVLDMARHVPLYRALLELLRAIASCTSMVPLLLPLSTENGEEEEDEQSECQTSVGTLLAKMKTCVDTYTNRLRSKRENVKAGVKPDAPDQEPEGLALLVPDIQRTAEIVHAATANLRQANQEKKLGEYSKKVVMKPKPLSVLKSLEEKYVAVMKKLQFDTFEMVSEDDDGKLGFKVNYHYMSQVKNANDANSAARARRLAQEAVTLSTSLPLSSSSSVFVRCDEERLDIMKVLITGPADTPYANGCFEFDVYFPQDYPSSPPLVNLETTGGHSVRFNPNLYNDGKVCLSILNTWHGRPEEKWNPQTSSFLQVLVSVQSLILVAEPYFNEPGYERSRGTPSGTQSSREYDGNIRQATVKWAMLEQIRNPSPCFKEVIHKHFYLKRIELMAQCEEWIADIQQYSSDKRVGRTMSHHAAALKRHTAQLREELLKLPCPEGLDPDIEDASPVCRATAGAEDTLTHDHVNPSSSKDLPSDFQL
UniProt P98170: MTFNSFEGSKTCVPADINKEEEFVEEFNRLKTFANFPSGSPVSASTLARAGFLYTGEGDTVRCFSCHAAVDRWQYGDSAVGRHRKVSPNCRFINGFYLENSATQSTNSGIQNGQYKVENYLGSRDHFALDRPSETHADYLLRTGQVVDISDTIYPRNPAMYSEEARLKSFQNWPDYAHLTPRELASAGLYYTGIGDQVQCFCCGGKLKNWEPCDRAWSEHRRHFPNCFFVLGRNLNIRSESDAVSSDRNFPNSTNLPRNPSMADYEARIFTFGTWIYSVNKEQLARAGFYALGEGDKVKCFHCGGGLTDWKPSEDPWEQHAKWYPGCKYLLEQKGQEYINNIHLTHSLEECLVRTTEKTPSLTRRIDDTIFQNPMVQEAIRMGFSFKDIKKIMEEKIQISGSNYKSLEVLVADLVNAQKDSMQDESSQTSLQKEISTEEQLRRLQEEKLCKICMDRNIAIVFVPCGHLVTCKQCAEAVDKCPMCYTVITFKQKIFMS
UniProt P55211: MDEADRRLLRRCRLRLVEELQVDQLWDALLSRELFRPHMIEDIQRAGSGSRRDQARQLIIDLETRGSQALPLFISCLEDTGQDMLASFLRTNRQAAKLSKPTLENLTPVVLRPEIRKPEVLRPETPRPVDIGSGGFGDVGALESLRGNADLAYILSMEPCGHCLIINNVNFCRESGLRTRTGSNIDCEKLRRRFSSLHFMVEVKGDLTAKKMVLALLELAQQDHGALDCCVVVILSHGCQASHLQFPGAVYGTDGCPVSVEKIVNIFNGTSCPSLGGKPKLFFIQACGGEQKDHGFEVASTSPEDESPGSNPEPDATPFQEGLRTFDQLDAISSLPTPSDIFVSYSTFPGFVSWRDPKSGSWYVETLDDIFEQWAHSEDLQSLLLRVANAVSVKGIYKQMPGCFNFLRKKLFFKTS

Results are given in words; binding and its absence hold for the method and conditions named. In cells and extracts the contact can be indirect. Some binding calls cover weakened binding; strength is not graded here.

From doi:10.1101/2022.12.10.519866 (bioRxiv, 2022) come the findings set out here.

In the case of “FLAG-tagged procaspase 9 triple mutant (E306A–D315A–D330A) (from UniProt P55211 1-416) (enzyme)”, the binding result in assay [1] is on record as “binds”.
Regarding “FLAG-tagged procaspase 9 quadruple mutant (E306A–D315A–D330A–C287A) (from UniProt P55211 1-416) (enzyme)”, the binding entry in assay [2], in assay [1] and in assay [3] was “binds” each time.
